Data from paper PMC7819943, “Rice protein-binding microarrays: a tool to detect cis-acting elements near promoter regions in rice”.
The list shows a part of the results.

Protein sequences, listed by entry. Tags and fused reporters are not part of them.
UniProt Q0JBA9, entry or part of it: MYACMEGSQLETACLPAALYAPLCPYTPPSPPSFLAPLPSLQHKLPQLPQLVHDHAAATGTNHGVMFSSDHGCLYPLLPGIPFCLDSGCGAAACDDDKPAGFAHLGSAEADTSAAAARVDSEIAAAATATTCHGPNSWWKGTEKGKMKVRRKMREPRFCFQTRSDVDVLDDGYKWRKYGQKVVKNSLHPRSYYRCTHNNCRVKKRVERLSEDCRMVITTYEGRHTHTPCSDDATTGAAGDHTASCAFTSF

Target: OsWRKY34 (Oryza sativa, UniProt Q0JBA9 1-250)
Test: protein-binding microarray (RPBM); PBS, 2% BSA, 51.3 ng/ul salmon testes DNA, 50 uM zinc acetate, 200 nM TF, 25 C, 1 h; high values mean tight binding
Settings: protein: recombinant; tags: N-terminal polyhistidine and DsRed monomer fusion (pET32a); label: CyDye5-dUTP incorporated in the synthesized complementary strand; 3' TTTTT single-stranded linker to array surface; dsDNA, one strand shown
Method in brief: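 A custom Agilent array was converted to double-stranded form by primer extension with Cy5-dUTP and blocked with 2% BSA. Protein at 200 nM in PBS with 2% BSA, salmon testes DNA and 50 µM zinc acetate was applied for 1 h at 25 °C, followed by washing. The proteins were polyhistidine–DsRed N-terminal fusions of transcription factors, expressed in E. coli BL21-CodonPlus and Ni–NTA-purified. The binding signal is per-feature fluorescence intensity (arbitrary units) from an Axon 4000B scanner.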

Row | Sequence | binding signal
1 | GGATCAATTAATGGAAGCATGAATAATGCATTTTCTCTCCCGGAGTCACCTAGTGCAG | 8240 fluorescence intensity (a.u.)
2 | ATCCCGTTCCGGCCCAACTTCGTCTTTTCGGCCCAATGGGCGGAGTCACCTAGTGCAG | 8700 fluorescence intensity (a.u.)
3 | CAGTGCCGATAAAATTTGTTATTTTTGTTTCTTCATATATCGGAGTCACCTAGTGCAG | 10900 fluorescence intensity (a.u.)
4 | TCCAATCCAGCCCGTCCACTCCCACACCAACGGTCGCGATCGGAGTCACCTAGTGCAG | 8410 fluorescence intensity (a.u.)
5 | ATGGTTCTCGATATCTTCCTCTCTCCATTCCACCGATTAACGGAGTCACCTAGTGCAG | 9480 fluorescence intensity (a.u.)
6 | CTTTTTTGACAGTCATCTTCAGTTTTTTTTTTTTGTTTAACGGAGTCACCTAGTGCAG | 12500 fluorescence intensity (a.u.)
7 | GTAACTACAGCCATATTCTTTTGATTTTATTTACCGGATTCGGAGTCACCTAGTGCAG | 9050 fluorescence intensity (a.u.)
8 | AAGCTCTTCTACGGCAATGCATTTTTTTATGCCACATATGCGGAGTCACCTAGTGCAG | 9820 fluorescence intensity (a.u.)
9 | GATCTTACATCGTTAGCATGCTTTTTAAACTGTTTAACGACGGAGTCACCTAGTGCAG | 9250 fluorescence intensity (a.u.)
10 | ATGTTTTTGTTTTTGCCATAAGATGTTGTGATCTAACTCCCGGAGTCACCTAGTGCAG | 9410 fluorescence intensity (a.u.)
11 | CTCTTCAGTCAGTTCGGTGTCATGGCACTAGCCGCTACTACGGAGTCACCTAGTGCAG | 8240 fluorescence intensity (a.u.)
12 | TCTGACTAAAAACCGTTCAACTGCGCTCCTATTTACTGCTCGGAGTCACCTAGTGCAG | 8490 fluorescence intensity (a.u.)
13 | TCCTCTGATCGGCCTCTCTCGCACATTGCTTAATTAGCTACGGAGTCACCTAGTGCAG | 10800 fluorescence intensity (a.u.)
14 | GCAATTTTTTTCAGAGCGTGTACATTCCCGTGTTTGTCTGCGGAGTCACCTAGTGCAG | 12100 fluorescence intensity (a.u.)
15 | CTCAGCTTTGTCCACACCTGTTTCTCAACATTTTTCTATGCGGAGTCACCTAGTGCAG | 9610 fluorescence intensity (a.u.)
16 | TCTCGTAGTTGTATATTACTACCAGTCGTATGGTTATATCCGGAGTCACCTAGTGCAG | 8330 fluorescence intensity (a.u.)
17 | ATTTTGATGATATGTGAACTTGGTTTTTGGTTTGGCCACGCGGAGTCACCTAGTGCAG | 8720 fluorescence intensity (a.u.)
18 | CCTCCGCTTCATATTATAAGTTGTTTGATTTTTTTCCTAACGGAGTCACCTAGTGCAG | 11300 fluorescence intensity (a.u.)
19 | TGGATAATGTTGGATAACGGGAAATGAGGGGTGGGATTAACGGAGTCACCTAGTGCAG | 10000 fluorescence intensity (a.u.)
20 | GACTTTCTTATTTTATTTTTCTAACTTTATTTTTTATTTTCGGAGTCACCTAGTGCAG | 10200 fluorescence intensity (a.u.)
21 | CCACCAGCCCGTGCAATCAGTGGCACTGTAAATTTTTGCTCGGAGTCACCTAGTGCAG | 8180 fluorescence intensity (a.u.)
22 | TATTTGGTTCCATTTGCTAATGTTTAGCCCTCACCTTTTACGGAGTCACCTAGTGCAG | 12700 fluorescence intensity (a.u.)
23 | TTTGCAAGTCATTGTTATCTTCATCTTCCACCTCCAAAACCGGAGTCACCTAGTGCAG | 11000 fluorescence intensity (a.u.)

Single entries from the list:
Under binding signal, TCCAATCCAGCCCGTCCACTCCCACACCAACGGTCGCGATCGGAGTCACCTAGTGCAG is entered as 8410 fluorescence intensity (a.u.)
Under binding signal, ATTTTGATGATATGTGAACTTGGTTTTTGGTTTGGCCACGCGGAGTCACCTAGTGCAG is entered as 8720 fluorescence intensity (a.u.)
